The supplement of paper PMC4683952
The other results are listed elsewhere or left out. No stated cut-off is given here; in the data, active = 2 or more and inactive = the rest. This data set is noisy: repeats of one test often differ as much as different tests do.

The compounds below were run on Lgr5 (MarsCy1-Lgr5-EGFP, U2OS) (assay: cell-surface Lgr5 expression (SCi1 fluorescence, background-subtracted) relative to WT DMSO (fold of DMSO control); higher = more Lgr5 at the plasma membrane). Conditions: U2OS MarsCy1-Lgr5-EGFP stable; treatment time: overnight; library: ActiProbe-5K (TimTec); 25 µM.

cell-surface Lgr5 expression, inactive:
Nc1c2nc[nH]c2c(N)c2[nH]c(=O)c(=O)[nH]c12 0.999
C=CCNc1nc2c(c(=O)[nH]c(=O)n2C)n1CCO 1.38
CSc1nc2ccc(S(=O)(=O)N(C)C)cc2s1 1.22
CCn1cc(CCO)c2ccccc21 1.44
Nn1c(-c2ccccn2)nnc1-c1ccccn1 1.25
Cn1c(SCc2ccc3c(c2)OCO3)nnc1-c1ccccc1 1.75
CC(C)CC(NC1CCS(=O)(=O)C1)C(=O)O (stereo not drawn) 0.989
CSc1ccc(/C=N/n2cnnc2)cc1 1.18
Br.N=c1[nH]c(-c2ccc3c(c2)OCCO3)cs1 1.36
CCOC(=O)/C(C#N)=C/Nc1ccsn1 0.99
NCc1cc(C(F)(F)F)cc(C(F)(F)F)c1 1.26
CCCCc1ccc(/C=C(\C#N)C(N)=S)s1 0.964
Brc1ccc(Sc2ccc(Br)cc2)cc1 1.43
N#Cc1cc2c(nc1SCc1ccncc1)CCC2 1.14
FC(F)(F)Oc1ccc(Nc2nc3ccccc3o2)cc1 0.808
CCCc1[nH]nc2c1C1(CCOC1C)C(C#N)=C(N)O2 (stereo not drawn) 1.07
O=C1C2CC=C(Cl)CC2C(=O)N1c1nnc[nH]1 (stereo not drawn) 1.1
CS(=O)(=O)Nc1ccc(Br)cn1 1.23
CCSc1ccc(Sc2ccc(SCC)s2)s1 1.49
Fc1cccc(Nc2nc(Cl)nc(Cl)n2)c1 1.16
C#CC[N+](C)(C)Cc1ccccc1.[Br-] 1.61
O=C1C2C3C=CC(C3)C2C(=O)N1c1ccc(F)cc1 (stereo not drawn) 1.15
C(S\C(=C(\C#N)C#N)NCC=C)c1ccccn1 1.33
Clc1cc(-c2ccccc2)nc(-c2ccc(Br)cc2)n1 1.04
Cn1nnc(Sc2ccc([N+](=O)[O-])cc2)n1 1.18
CC(C)C1=C2CCCCC2NC(=O)N1 (stereo not drawn) 1.18
c1cc2c(cc1C1=Nn3cnnc3SC1)OCCO2 1.16
O=[N+]([O-])c1cc(Br)cc2cc[nH]c12 1.22
[O-]/[N+](=N\c1ccc(Cl)cc1)c1ccc(Cl)cc1 1.23
O=C(CCC1CCCC1)N1CCc2cc(Br)ccc21 1.27
c1ccc(N2CCN(CN3CCN(c4ccccc4)CC3)CC2)cc1 1.15
CN(C)CCNC(=O)c1scc2c1CCCC2 0.998
c1ccc(OCCSc2nnc3[nH]cnn23)cc1 0.81
O=C(Nc1nnc(C2CCCC2)s1)c1ccco1 1.12
Nc1nnc(SCC(=O)N2CCCC2)s1 1
Cn1cnc([N+](=O)[O-])c1N1CCOCC1 1.23
Nn1c(S)nnc1CO 1.13
O=C1CSc2ccc(NC(=O)C3CCCC3)cc2N1 1.28
O=C1OC(C2OC(=O)c3ccccc32)c2ccccc21 (stereo not drawn) 1.33
N/N=C1/CCCc2c1[nH]c1ccc(C(F)(F)F)cc21 1.15
COc1ccc2ccc(=O)oc2c1OC 0.989
COc1sc(S(C)(=O)=O)cc1S(C)(=O)=O 1.01
CC1(C)OC(=O)N(CCCN2C(=O)OC(C)(C)C2(C)O)C1(C)O (stereo not drawn) 1.11
O=S(=O)(NCC1CCCO1)c1ccccc1 (stereo not drawn) 1.16
CN(C)S(=O)(=O)N1CCN(c2nc3ccccc3o2)CC1 1.28
COc1cc(-c2nnc(CSc3ncccn3)o2)cc(OC)c1OC 1.44
O=S(=O)(Nc1ncccn1)c1ccccc1 1.13
N#CCNS(=O)(=O)c1ccc(Br)cc1 1.05
CCn1c(N)c(C(N)=O)sc1=S 1.12
Nc1ccc2[nH]c(C(F)(F)F)nc2c1 1.08
O=c1[nH]nc2nc(-c3ccccc3)cnn12 1.33
Sc1nc2ccccc2c2c1CCC2 0.924
CC1(C)C(c2nc(-c3ccc(Br)cc3)no2)C1(C)C 1.14
Nc1cc[n+](Cc2ccccc2)cc1.[Br-] 1.01
CC(C(=O)n1cc(Cl)cn1)n1cc([N+](=O)[O-])cn1 (stereo not drawn) 0.999
Cn1c(=O)[nH]c2c(N)nccc21 0.922
N#CC1=C(N)SC(N)=C(C#N)C1c1cccs1 1.43
CN(C)/C=C1\C(=O)N(c2nc3ccccc3s2)N=C1C(F)(F)F 1.3
Nc1c(Cl)nsc1Cl 1.05
N#CC1=C(N)C(C#N)(C#N)C2=CCCC2C12CCCCC2 (stereo not drawn) 0.942
C=CCOc1nc2c(c(=O)n(C)c(=O)n2C)n1C 1.37
COC(=O)C(Nc1nccs1)(OC)C(F)(F)F (stereo not drawn) 1.03
C=CCn1c(-c2cccnc2)n[nH]c1=S 1.23
Cc1ccc(C2C(C(=O)c3cccs3)=C(O)C(=O)N2CCN(C)C)o1 (stereo not drawn) 1.1
CN(C)C(=O)CSc1nnc(N)s1 1.18
C/C(=C\c1cccs1)[N+](=O)[O-] 1.1
COc1cc2c(cc1OC)C1(CCN(C)CC1)OCC2 1.05
Cc1cc(C)n(CCc2nn[nH]n2)n1 1.23
N/N=C1/C2CN3CCN(C2)CC1(Cc1ccc(O)cc1)C3 1.23
Cc1cc(C)c(C)c(S(=O)(=O)NCC2CCCO2)c1C (stereo not drawn) 1.21
O=C(O)C1CSC(C2CC=CCC2)N1 (stereo not drawn) 1.03
CCC1CCC2(CC1)N[C@H](C(=O)O)CS2 (stereo partly drawn) 1.16
CCSc1sc(C(C)(CC)c2cc(C(C)=O)c(SCC)s2)cc1C(C)=O 1.15
Clc1ccc(Nc2nc3nonc3nc2Nc2ccc(Cl)c(Cl)c2)cc1Cl 1.29
C=12[C@H]([C@@H]([C@](C(=C2C#N)N)(C#N)C#N)c2cnccc2)(C2N(C(CC2)C1)C) (stereo partly drawn) 1.28
OCCN(/C=N\C1=NN(c2ccccc2)CC1)CCO 1.26
Brc1ccc(-c2noc(C3CCCCC3)n2)o1 1.21
O=[N+]([O-])c1ccc2nc(Nc3ccc(Cl)c(Cl)c3)c(Nc3ccc(Cl)c(Cl)c3)nc2c1 1.33
N#Cc1ccc(Br)o1 1.08
Oc1ccc(/N=N\c2nccs2)c(O)c1 0.722
COc1cc(CC(C)Br)cc2c1OCO2 (stereo not drawn) 1.01
Cc1cc(NC2(C(F)(F)F)N=C3SCCN3C2=O)no1 (stereo not drawn) 1.06
CC(C)(C)S(=O)(=O)c1ccc(S(=O)(=O)C(C)(C)C)s1 1.3
C#CCSc1nc(N)c(C#N)cc1C#N 1.31
O=[N+]([O-])c1cc2c(cc1-n1ccnc1)OCCO2 1.05
CCOC(=O)c1c(N)sc(C)c1C 1.09
O=c1[nH]nc(CSc2ccc([N+](=O)[O-])cc2)[nH]1 1.03
O=S(=O)(c1ccccc1)c1cccs1 1.14
CCN(CC)C(=S)NC1CCCCC1 1.38
O=c1cn[nH]c(=S)n1/N=C/c1c(Cl)ccc(Cl)c1Cl 0.995
N#Cc1c(C(F)(F)F)cc(C2CC2)nc1SCc1cccc(F)c1 0.886
Cc1c(C#N)c(N)n(CCC2=CCCCC2)c1C 1.27
CNc1c([N+](=O)[O-])cc2c(c1[N+](=O)[O-])n(C)c(=O)n2C 1.04
O=c1cc(O)c2sc3nc4c(c(C(F)F)c3c2[nH]1)CCCC4 1.36
N#Cc1csc2c1CCCC2 1.16
CN1C(=O)C(CCO)NC1=S (stereo not drawn) 1.07
c1ccc(C2C3=C(Nc4ncnn42)c2ccccc2CCC3)cc1 (stereo not drawn) 1.57
Cc1nonc1-c1ccnc2nnc(N)n12 1.03
CC(C)(C)c1nn2cnnc2[nH]c1=O 0.94
O=C(O)c1ccc(Br)o1 0.965
O=S(=O)(Nc1ncccn1)c1ccc(Cl)cc1 0.978
C/N=C1\S/C(=C/c2ccc(C)s2)C(=O)N1C 1.28
Cc1cc(OCc2ccc3nsnc3c2)c(C(C)C)cc1-n1cnnn1 0.896
Sc1nnc(Nc2ccccc2)n1-c1ccccc1 1.11
O=C1NC2(Nc3ccccc31)C(=O)Nc1ccccc12 (stereo not drawn) 1.11
CCN(CC)C1(CN)CCCCC1 0.992
O=C1/C(=C/c2ccncc2)SC(=S)N1C1CCS(=O)(=O)C1 (stereo not drawn) 1.68
CN(C)c1c([N+](=O)[O-])cc2[nH]c(=O)[nH]c2c1[N+](=O)[O-] 1.84
COc1ccc(C2NN=C(c3ccc(C)cc3)S2)cc1 (stereo not drawn) 0.987
O=S(=O)(NCc1ccc2c(c1)OCO2)c1ccc2oc3ccccc3c2c1 1.28
CC1(O)OC2(C)CCC1(C)OC2(C)O (stereo not drawn) 1.23
Clc1ccc(-c2nc3sc(-c4ccc(Cl)cc4Cl)nc3s2)c(Cl)c1 1.22
Nc1ccc(S(=O)(=O)N2CCCC2)cc1 1.11
CNc1sc2c(O)cc(=O)[nH]c2c1C#N 1.11
CCn1ncc(Cl)c1C(=O)NC1C(=O)N2C(C(=O)O)=C(COC(C)=O)CSC12 (stereo not drawn) 1.26
C(=N/c1nccs1)/c1ccco1 0.892
C1(C(\C=C(/Cl)Cl)C1C(=O)O)(C)C (stereo not drawn) 1.32
C(=C/c1nnc2ccc3ccccc3n12)/c1ccco1 1.16

For reference, some entries already given.
cell-surface Lgr5 expression, inactive:
CCC1CCC2(CC1)N[C@H](C(=O)O)CS2 (stereo partly drawn) 1.16
CCSc1sc(C(C)(CC)c2cc(C(C)=O)c(SCC)s2)cc1C(C)=O 1.15

Two entries drawn at random from those above:
cell-surface Lgr5 expression, inactive:
Nn1c(-c2ccccn2)nnc1-c1ccccn1 1.25
CSc1ccc(/C=N/n2cnnc2)cc1 1.18
